Reference: patent US10729684B2, “Alkynyl dihydroquinoline sulfonamide compounds” (AMGEN INC., priority 2015, dated 2020)
The structures given here were assigned with low confidence; some may be wrong.

The chains behind the UniProt entries cited, without tags or fusion partners.
UniProt Q15858, whole entry: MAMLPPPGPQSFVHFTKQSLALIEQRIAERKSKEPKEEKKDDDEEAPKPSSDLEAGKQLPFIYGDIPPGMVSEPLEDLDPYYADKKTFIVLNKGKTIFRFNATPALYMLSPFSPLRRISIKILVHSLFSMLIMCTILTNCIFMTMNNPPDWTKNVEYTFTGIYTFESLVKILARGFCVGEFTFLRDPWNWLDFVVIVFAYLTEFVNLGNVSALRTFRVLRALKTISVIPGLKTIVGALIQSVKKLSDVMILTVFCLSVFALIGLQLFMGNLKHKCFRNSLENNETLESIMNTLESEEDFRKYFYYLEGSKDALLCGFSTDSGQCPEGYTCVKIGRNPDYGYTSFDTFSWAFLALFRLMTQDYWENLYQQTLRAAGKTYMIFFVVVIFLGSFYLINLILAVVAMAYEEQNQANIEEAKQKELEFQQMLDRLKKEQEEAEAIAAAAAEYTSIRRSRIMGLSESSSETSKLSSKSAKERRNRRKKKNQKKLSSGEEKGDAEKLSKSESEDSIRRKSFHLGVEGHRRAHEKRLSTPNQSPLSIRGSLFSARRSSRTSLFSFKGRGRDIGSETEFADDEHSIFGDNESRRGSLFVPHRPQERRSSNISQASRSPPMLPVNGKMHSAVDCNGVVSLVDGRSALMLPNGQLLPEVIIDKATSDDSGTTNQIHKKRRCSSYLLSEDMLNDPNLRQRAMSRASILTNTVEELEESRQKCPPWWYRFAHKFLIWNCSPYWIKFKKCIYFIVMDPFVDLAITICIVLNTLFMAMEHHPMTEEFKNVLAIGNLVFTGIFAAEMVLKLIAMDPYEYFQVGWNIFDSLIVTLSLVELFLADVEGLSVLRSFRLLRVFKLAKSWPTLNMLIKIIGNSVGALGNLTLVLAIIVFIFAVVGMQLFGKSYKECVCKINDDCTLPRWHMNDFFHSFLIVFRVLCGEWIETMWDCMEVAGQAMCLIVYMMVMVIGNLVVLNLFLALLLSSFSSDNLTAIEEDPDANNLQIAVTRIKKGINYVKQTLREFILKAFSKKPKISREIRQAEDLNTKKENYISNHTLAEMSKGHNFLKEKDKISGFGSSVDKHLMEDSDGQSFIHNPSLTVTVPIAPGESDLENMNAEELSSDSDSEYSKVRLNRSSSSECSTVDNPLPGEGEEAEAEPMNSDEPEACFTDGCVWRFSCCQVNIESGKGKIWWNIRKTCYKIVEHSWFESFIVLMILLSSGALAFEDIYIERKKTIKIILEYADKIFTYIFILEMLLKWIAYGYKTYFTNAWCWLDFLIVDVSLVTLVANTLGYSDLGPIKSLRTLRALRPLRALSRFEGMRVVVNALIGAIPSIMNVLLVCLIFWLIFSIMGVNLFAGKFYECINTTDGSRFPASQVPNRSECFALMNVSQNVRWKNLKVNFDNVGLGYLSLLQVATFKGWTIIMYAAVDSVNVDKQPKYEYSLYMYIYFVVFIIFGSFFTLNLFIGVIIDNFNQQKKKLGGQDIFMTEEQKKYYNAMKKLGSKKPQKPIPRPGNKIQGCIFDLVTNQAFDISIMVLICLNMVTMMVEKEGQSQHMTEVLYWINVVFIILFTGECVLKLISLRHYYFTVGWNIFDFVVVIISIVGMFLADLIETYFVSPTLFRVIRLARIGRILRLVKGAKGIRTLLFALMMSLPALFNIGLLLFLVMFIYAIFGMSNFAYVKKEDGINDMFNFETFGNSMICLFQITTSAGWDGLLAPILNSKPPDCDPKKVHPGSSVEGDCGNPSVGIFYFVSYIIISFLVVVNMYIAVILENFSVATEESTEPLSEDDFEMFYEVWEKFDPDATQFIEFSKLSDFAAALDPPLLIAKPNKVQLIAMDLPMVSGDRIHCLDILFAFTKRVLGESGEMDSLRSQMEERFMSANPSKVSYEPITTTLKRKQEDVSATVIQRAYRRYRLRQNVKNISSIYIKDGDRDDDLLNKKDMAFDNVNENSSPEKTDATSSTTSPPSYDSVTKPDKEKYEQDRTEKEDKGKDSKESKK

What was measured:
human Nav1.7 = human Nav1.7 (Homo sapiens (Human), UniProt Q15858); experiment: Nav 1.7 in vitro PX assay (PatchXpress whole cell voltage clamp); type: cell-based; details: read-out: hNav1.7 PX IC50, HEK 293 cells stably transfected with human Nav1.7, partially inactivated state
hNav1.7 = hNav1.7 (Homo sapiens (Human), UniProt Q15858); experiment: Nav 1.7 IWQ in vitro assay (IonWorks Quattro population patch-clamp); details: read-out: hNav1.7 IWQ IC50, HEK 293 cells stably transfected with Nav 1.7

COc1cc(C#CC2CCCC2)c(F)cc1-n1c(=O)ccc2cc(S(=O)(=O)Nc3cccnn3)ccc21 [Example 9]
IC50 (human Nav1.7): 33.8 nM
IC50 (hNav1.7): 9.73 nM
